No constants are given. Whether binding was seen depends on the method and setting. For some assays here: A result given as binding can be weak or reduced; the word gives no strength. For some assays here: In cells and extracts the contact can be indirect. For some assays here: Tags and fused reporters may be left off the sequences shown. Values belong to the molecule of their own block, whether it stands above or below them.
How the values were obtained:
[1] = molecular target: T1, Myc-tagged mouse ECH1 construct (ECH1-Myc) (mouse) (UniProt O35459); test: co-IP
T1 sequence: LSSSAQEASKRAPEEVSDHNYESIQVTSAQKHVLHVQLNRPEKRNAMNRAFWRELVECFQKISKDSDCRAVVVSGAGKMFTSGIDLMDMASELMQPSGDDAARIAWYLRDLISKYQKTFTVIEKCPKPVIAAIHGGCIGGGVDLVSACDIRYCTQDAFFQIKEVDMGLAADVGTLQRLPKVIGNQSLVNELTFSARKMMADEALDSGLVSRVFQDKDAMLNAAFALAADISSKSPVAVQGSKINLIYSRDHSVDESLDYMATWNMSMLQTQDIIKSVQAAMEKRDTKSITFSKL

[2] = molecular target: Myc-tagged human adenine nucleotide translocase (hANT-myc) (human); test: co-IP
[3] = molecular target: UCP3 hydrophilic domain 1 (HD1) bait; test: two-hybrid
[4] = molecular target: UCP3 hydrophilic domain 3 (HD3) bait; test: two-hybrid
[5] = molecular target: UCP3 hydrophilic domain 6 (HD6) bait; test: two-hybrid
[6] = molecular target: UCP3 hydrophilic domain 7 (HD7) bait; test: two-hybrid
[7] = molecular target: UCP3 hydrophilic domain 4 (HD4) bait; test: two-hybrid
[8] = molecular target: UCP3 hydrophilic domain 2 (HD2) bait; test: two-hybrid

binding [1]: binds
Molecule: V5-tagged UCP3 truncation mutant lacking hydrophilic domain 4 (ΔHD4) (from UniProt P56501)

binding [2]: no binding
B1: V5-tagged mouse UCP3 construct (UCP3-V5) (protein, UniProt P56501 1-308)
chain: MVGLQPSEVPPTTVVKFLGAGTAACFADLLTFPLDTAKVRLQIQGENPGAQSVQYRGVLGTILTMVRTEGPRSPYSGLVAGLHRQMSFASIRIGLYDSVKQFYTPKGADHSSVAIRILAGCTTGAMAVTCAQPTDVVKVRFQAMIRLGTGGERKYRGTMDAYRTIAREEGVRGLWKGTWPNITRNAIVNCAEMVTYDIIKEKLLESHLFTDNFPCHFVSAFGAGFCATVVASPVDVVKTRYMNAPLGRYRSPLHCMLKMVAQEGPTAFYKGFVPSFLRLGAWNVMMFVTYEQLKRALMKVQVLRESPF

binding [3]: binds | binding [4]: binds | binding [5]: no binding | binding [6]: no binding | binding [7]: binds | binding [8]: no binding
B2: full length ECH1 (yeast two-hybrid) (enzyme, UniProt Q13011 1-328)
chain: MAAGIVASRRLRDLLTRRLTGSNYPGLSISLRLTGSSAQEEASGVALGEAPDHSYESLRVTSAQKHVLHVQLNRPNKRNAMNKVFWREMVECFNKISRDADCRAVVISGAGKMFTAGIDLMDMASDILQPKGDDVARISWYLRDIITRYQETFNVIERCPKPVIAAVHGGCIGGGVDLVTACDIRYCAQDAFFQVKEVDVGLAADVGTLQRLPKVIGNQSLVNELAFTARKMMADEALGSGLVSRVFPDKEVMLDAALALAAEISSKSPVAVQSTKVNLLYSRDHSVAESLNYVASWNMSMLQTQDLVKSVQATTENKELKTVTFSKL
